Measurements from paper PMC4992063, “PARP3 is a sensor of nicked nucleosomes and monoribosylates histone H2BGlu2”.
Construct, isoform or probe ends are uncertain for at least one entry. No signal at the amounts used counts as a negative. At least one verdict was read from the data and is not stated in words by the source. Protein sequences can lack the tags named with them.

Target: T1, cPARP3 NTD-WGR (1-169) (Gallus gallus) (UniProt E1BSI0)
T1 sequence (looked up): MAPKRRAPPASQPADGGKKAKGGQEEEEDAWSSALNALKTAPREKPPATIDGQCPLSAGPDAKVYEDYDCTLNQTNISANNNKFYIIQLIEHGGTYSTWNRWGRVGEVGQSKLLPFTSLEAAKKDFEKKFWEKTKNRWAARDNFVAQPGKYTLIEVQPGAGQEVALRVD
Assay: NMR (1H-15N HSQC)
Conditions: no 5'-phosphate, no significant perturbations in WGR; none (5'-OH at nick); NMR: 20 mM Tris-HCl pH 7.0, 125 mM NaCl, 1 mM TCEP, 10% D2O, 303 K, ~300 uM protein; recombinant protein; residues 1-169

## GCACAGCCGTGAGCGATGC / GCATCGCTCA / CGGCTGTGC [NMR DNA substrate lacking 5'-phosphate]
  binding result: no binding
